± gives the standard deviation of the averaged measurements. The entries are a selection whose mix differs from that of the whole data set.
What was measured:
Test in all cases: NP40-soluble protein abundance relative to vehicle (solubility fold change) (ratio); higher = more soluble protein in presence of AMP-PNP
[1] = target: T1, ATP11B (UniProt Q9Y2G3)
T1 sequence (whole entry): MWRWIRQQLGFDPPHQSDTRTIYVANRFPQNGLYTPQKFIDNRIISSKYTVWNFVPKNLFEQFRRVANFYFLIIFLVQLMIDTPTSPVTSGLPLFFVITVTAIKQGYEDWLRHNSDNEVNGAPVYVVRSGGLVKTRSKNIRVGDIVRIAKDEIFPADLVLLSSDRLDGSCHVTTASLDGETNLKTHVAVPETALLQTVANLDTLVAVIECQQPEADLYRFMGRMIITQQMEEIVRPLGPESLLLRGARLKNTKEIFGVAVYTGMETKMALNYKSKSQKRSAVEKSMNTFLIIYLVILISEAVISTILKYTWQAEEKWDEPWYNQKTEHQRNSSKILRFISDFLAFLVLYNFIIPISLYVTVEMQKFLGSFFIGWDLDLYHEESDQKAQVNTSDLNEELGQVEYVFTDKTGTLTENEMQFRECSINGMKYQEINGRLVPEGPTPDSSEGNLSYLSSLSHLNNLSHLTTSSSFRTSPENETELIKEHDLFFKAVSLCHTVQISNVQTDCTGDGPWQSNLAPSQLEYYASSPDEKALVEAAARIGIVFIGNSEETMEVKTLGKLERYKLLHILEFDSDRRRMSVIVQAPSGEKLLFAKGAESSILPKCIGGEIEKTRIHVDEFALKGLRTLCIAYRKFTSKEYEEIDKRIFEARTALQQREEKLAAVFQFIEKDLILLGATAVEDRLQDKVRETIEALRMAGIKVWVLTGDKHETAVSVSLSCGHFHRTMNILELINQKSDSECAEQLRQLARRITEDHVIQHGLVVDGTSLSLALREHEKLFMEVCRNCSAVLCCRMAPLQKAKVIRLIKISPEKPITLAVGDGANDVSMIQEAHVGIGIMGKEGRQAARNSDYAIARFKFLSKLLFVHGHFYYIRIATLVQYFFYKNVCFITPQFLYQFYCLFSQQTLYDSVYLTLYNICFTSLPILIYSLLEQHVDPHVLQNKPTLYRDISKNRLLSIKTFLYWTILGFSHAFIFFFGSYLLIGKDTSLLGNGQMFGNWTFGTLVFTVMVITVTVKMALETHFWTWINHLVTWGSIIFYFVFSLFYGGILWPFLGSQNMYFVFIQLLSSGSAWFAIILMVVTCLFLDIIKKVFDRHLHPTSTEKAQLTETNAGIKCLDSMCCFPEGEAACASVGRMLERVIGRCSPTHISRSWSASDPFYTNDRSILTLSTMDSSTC
Outline: (§1)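 Across three independent experiments, values are fold changes against the detergent-processed vehicle for each replicate, based on vsn-normalised intensities. The samples were Jurkat crude lysate treated with eight concentrations (0.1 to 10 mM) for 10 min at room temperature and then 3 min at 37 °C. Lysate was solubilised with 0.8% NP40 and benzonase, ultracentrifuged, and the supernatant analysed by TMT-labelled LC-MS/MS.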

[2] = target: T2, DDX52 (UniProt Q9Y2R4)
T2 sequence (whole entry): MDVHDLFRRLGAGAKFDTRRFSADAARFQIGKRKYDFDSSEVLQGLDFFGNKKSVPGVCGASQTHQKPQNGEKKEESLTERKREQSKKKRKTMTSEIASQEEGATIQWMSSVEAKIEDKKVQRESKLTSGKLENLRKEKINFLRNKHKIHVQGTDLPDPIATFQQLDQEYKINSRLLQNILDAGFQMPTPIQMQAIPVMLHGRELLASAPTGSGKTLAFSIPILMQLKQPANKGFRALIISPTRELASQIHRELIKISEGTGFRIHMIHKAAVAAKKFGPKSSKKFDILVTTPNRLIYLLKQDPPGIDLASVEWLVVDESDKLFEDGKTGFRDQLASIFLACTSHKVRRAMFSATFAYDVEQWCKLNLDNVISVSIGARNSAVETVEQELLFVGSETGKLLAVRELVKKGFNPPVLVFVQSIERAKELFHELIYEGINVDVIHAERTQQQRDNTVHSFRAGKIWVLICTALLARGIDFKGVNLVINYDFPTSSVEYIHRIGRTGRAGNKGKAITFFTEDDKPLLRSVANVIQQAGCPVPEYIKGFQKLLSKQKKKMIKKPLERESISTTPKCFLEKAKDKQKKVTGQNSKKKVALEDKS
Outline: as §1

[3] = target: T3, FAF1 (UniProt Q9UNN5)
T3 sequence (whole entry): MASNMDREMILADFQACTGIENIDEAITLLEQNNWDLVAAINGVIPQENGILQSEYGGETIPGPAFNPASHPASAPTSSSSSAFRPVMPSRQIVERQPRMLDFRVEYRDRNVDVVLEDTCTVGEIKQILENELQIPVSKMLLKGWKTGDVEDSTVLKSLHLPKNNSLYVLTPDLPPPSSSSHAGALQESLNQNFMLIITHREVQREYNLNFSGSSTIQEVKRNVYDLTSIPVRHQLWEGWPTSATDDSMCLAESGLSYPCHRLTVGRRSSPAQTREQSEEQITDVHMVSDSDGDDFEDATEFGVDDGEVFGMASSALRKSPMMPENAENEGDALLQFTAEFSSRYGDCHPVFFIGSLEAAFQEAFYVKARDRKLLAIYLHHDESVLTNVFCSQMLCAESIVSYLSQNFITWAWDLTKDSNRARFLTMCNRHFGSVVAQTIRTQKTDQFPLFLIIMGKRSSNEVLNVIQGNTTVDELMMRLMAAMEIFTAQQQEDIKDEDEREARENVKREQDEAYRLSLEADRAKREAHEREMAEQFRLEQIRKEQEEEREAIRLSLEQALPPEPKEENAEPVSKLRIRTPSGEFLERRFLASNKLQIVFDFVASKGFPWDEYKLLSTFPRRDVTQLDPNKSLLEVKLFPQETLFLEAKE
Outline: as §1

[4] = target: T4, FIS1 (UniProt Q9Y3D6)
T4 sequence (whole entry): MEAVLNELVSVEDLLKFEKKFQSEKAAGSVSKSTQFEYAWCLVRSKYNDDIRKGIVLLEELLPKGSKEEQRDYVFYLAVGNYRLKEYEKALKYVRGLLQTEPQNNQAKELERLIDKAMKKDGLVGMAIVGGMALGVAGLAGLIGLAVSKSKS
Outline: as §1

[5] = target: T5, GGT7 (UniProt Q9UJ14)
T5 sequence (whole entry): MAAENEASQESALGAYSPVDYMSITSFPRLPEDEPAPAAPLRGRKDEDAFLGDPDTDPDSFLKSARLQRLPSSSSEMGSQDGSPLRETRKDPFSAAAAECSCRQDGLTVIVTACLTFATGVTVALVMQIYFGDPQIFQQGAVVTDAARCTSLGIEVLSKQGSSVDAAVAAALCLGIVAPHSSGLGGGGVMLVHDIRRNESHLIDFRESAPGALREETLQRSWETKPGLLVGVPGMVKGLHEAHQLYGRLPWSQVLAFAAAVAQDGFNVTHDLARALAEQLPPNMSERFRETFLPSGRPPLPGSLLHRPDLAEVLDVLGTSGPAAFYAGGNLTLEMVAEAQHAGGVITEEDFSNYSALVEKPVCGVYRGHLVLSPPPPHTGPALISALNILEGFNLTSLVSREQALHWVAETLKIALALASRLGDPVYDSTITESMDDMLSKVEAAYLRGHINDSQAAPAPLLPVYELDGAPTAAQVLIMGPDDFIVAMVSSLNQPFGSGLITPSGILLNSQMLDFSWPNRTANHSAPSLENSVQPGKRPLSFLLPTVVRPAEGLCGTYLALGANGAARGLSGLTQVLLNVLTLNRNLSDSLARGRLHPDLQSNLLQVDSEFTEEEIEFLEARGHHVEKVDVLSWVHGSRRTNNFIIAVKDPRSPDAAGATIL
Outline: as §1

Question: Which results are given for `Nc1ncnc2c1ncn2[C@@H]1O[C@H](COP(=O)(O)OP(=O)(O)NP(=O)(O)O)[C@@H](O)[C@H]1O` [adenylyl imidodiphosphate]?
Answer: NP40-soluble protein abundance ([1]; concentration: 1mM): 0.9837 ± 0.0036; NP40-soluble protein abundance ([1]; concentration: 2mM): 0.874 ± 0.13; NP40-soluble protein abundance ([1]; concentration: 4mM): 0.968 ± 0.078; NP40-soluble protein abundance ([1]; concentration: 6mM): 0.8741 ± 0.0016; NP40-soluble protein abundance ([1]; concentration: 8mM): 0.929 ± 0.06; NP40-soluble protein abundance ([1]; concentration: 10mM): 0.866 ± 0.051; NP40-soluble protein abundance ([2]; concentration: 1mM): 1.08 ± 0.094; NP40-soluble protein abundance ([2]; concentration: 2mM): 1.1 ± 0.047; NP40-soluble protein abundance ([2]; concentration: 4mM): 1.18 ± 0.07; NP40-soluble protein abundance ([2]; concentration: 6mM): 1.22 ± 0.038; NP40-soluble protein abundance ([2]; concentration: 8mM): 1.28 ± 0.055; NP40-soluble protein abundance ([2]; concentration: 10mM): 1.39 ± 0.046; NP40-soluble protein abundance ([3]; concentration: 1mM): 1.01 ± 0.022; NP40-soluble protein abundance ([3]; concentration: 2mM): 1.02 ± 0.011; NP40-soluble protein abundance ([3]; concentration: 4mM): 0.988 ± 0.021; NP40-soluble protein abundance ([3]; concentration: 6mM): 0.985 ± 0.045; NP40-soluble protein abundance ([3]; concentration: 8mM): 0.966 ± 0.041; NP40-soluble protein abundance ([3]; concentration: 10mM): 0.986 ± 0.062; NP40-soluble protein abundance ([4]; concentration: 1mM): 0.934 ± 0.017; NP40-soluble protein abundance ([4]; concentration: 2mM): 0.96 ± 0.022; NP40-soluble protein abundance ([4]; concentration: 4mM): 0.922 ± 0.025; NP40-soluble protein abundance ([4]; concentration: 6mM): 0.951 ± 0.1; NP40-soluble protein abundance ([4]; concentration: 8mM): 0.963 ± 0.014; NP40-soluble protein abundance ([4]; concentration: 10mM): 0.93 ± 0.071; NP40-soluble protein abundance ([5]; concentration: 1mM): 1.02 ± 0.012; NP40-soluble protein abundance ([5]; concentration: 2mM): 1.03 ± 0.028; NP40-soluble protein abundance ([5]; concentration: 4mM): 1.03 ± 0.027; NP40-soluble protein abundance ([5]; concentration: 6mM): 1 ± 0.036

Reference: the supplement of paper PMC6411743
